# Source: PMC10193013, “Nonstructural N- and C-tails of Dbp2 confer the protein full helicase activities” (The Journal of Biological Chemistry, 2023)
# Amino acid sequences for entries named in this document (tags omitted). Residues count along the entry.
# UniProt P24783, residues 53-496: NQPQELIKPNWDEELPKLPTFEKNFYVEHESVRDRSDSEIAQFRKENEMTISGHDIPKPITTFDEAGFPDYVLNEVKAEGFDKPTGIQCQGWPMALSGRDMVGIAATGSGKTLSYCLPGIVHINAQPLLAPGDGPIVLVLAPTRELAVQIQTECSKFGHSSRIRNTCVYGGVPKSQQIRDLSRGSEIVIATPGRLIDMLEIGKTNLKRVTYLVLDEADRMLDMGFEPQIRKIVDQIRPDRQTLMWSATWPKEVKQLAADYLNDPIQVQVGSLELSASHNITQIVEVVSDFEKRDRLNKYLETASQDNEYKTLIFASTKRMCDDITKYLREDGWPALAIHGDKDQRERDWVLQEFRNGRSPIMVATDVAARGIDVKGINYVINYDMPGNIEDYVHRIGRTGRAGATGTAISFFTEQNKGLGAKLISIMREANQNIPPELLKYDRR
# These are yes or no findings as the source states them, for the method shown.
# Legend:
# [1] = target: Dbp2 catalytic core, proteolytic fragment of full-length Dbp2 (crystallised with ADP) (S. cerevisiae) (UniProt P24783); experiment: crystal structure; Dbp2 helicase core with 20 mM ADP and 16 nt polyGT ssDNA; sitting drop, 20 °C, 2.02 M (NH4)2SO4, 100 mM Tris pH 7.5; space group P212121, six molecules in the asymmetric unit; both purified
# [2] = target: Dbp2^53-496 (helicase core of Dbp2) (S. cerevisiae) (UniProt P24783); experiment: SAXS; Dbp2^53-496 with ADP in solution; beamline SWING (SOLEIL); both purified
Substance,binding [1],binding [2]
"Dbp2 catalytic core, proteolytic fragment of full-length Dbp2 (crystallised with ADP) (from UniProt P24783 53-496) (domain or fragment)",no binding,–
Dbp2^53-496 (helicase core of Dbp2) (from UniProt P24783 53-496) (domain or fragment),–,no binding
